Assay results taken from publication PMC8435234.

Target: vesicle transport V-SNARE protein (Vti1a) of the white-backed planthopper (white-backed planthopper (Sogatella furcifera))
Assay: two-hybrid; split-ubiquitin Y2H system (Dualsystems Biotech), yeast NMY51; growth on QDO (SD-Ade-His-Leu-Trp) with 20 mM 3-aminotriazole, 30 °C, and β-galactosidase assay

Substance: vesicle-associated membrane protein 7 (VAMP7) of the white-backed planthopper (from UniProt A0A7S6G4N4)
- binding: binds

These are yes or no findings as the source states them, for the method shown. A result given as binding can be weak or reduced; the word gives no strength.
